Test results: publication PMC5133449, “Peripheral self-reactivity regulates antigen-specific CD8 T-cell responses and cell division under physiological conditions” (Open Biology, 2016)

Test system: Rop7-II TCR
Assay: SPR affinity of H-2 L^d-peptide complexes for immobilised recombinant Rop7-II TCR (BIAcore 3000)
Assay type: binding, mouse
Conditions: for lower affinity of Rop7-II TCR than Rop7-I TCR: Rop7-II versus Rop7-I TCR, peptide in H-2 L^d

For “IPAAAGRFF [peptide … derived from the Rop7 protein of Toxoplasma gondii]”, the “lower affinity of Rop7-II TCR than Rop7-I TCR” value was 25 fold and the “lower affinity of Rop7-II TCR than Rop7-III TCR” value (Rop7-II versus Rop7-III TCR, H-2 L^d-IPAAAGRFF) was 3 fold.
For IPANAGRFF, the “lower affinity of Rop7-II TCR than Rop7-I TCR” value was “approx. twofold”.
